The values below come from article PMC12706078.

Chains of the proteins cited; added tags and fusions are not shown. Lines headed by an entry give the natural chain unless they say otherwise; changes in a name come on top. A line that says so, or that is headed by a name, gives the form on record, which may keep a tag or linker. Residues count along the entry.
Flag-tagged PD-L1 (PD-L1-Flag) (Q9NZQ7, residues 19-290): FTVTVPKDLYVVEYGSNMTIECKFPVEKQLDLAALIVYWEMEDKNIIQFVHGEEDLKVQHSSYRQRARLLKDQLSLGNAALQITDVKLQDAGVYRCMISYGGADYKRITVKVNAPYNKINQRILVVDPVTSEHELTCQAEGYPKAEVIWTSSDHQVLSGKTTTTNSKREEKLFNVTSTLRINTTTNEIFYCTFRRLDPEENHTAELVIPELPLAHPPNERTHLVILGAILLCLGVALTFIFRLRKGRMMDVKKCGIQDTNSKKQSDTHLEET
PD-L1-Flag C250/272A double mutant (Q9NZQ7-1, form named): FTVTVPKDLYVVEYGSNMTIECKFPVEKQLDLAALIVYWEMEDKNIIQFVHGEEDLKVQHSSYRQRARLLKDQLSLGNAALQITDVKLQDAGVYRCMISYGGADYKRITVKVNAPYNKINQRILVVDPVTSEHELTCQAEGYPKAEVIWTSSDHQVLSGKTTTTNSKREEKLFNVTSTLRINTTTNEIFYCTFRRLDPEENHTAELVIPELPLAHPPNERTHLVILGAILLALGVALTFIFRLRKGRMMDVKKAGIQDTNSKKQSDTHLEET
PD-L1-Flag C250A mutant (Q9NZQ7-1, form named): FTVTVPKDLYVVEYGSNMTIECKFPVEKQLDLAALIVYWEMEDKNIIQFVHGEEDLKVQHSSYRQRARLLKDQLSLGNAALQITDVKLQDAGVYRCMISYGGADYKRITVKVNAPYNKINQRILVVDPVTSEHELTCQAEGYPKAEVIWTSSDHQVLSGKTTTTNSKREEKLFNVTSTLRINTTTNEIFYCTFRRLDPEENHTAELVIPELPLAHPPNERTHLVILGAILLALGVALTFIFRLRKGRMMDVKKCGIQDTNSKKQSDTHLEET
PD-L1-Flag C272A mutant (Q9NZQ7-1, form named): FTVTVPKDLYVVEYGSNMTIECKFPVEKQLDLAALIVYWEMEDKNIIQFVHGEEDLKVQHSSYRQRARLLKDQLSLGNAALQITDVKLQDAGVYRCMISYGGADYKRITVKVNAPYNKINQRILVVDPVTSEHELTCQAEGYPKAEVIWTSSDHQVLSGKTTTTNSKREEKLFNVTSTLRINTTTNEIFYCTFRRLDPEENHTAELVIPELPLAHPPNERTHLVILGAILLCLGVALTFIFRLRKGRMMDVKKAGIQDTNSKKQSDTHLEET

For assay [1], the target named is T1, biotinylated-tagged UBL3 (Biotin-UBL3) (UniProt O95164).
T1 sequence: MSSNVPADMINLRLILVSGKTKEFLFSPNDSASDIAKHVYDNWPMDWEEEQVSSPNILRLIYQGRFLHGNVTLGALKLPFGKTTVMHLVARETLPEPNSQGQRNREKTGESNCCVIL
As to the kind of experiment: co-IP; UBL3 modification assay: lysates of co-transfected MDA-MB-231 cells (lysis without DTT), Biotin-UBL3 captured on NeutrAvidin agarose/streptavidin beads 18 h at 4 °C, eluted without 2-mercaptoethanol (βME-, non-reducing), anti-Flag blot, signals above 70 kDa; also done after statin treatment of the cells (modification reduced, Supplementary Fig. S5).

Assay [2] has as its target T1, biotinylated-tagged UBL3 (Biotin-UBL3). As to the kind of experiment: condition: only immunoprecipitates treated with 2-mercaptoethanol (βME+); co-IP; same precipitates as in a1, but the eluate was treated with 2-mercaptoethanol for 5 min at 95 °C (βME+, reducing) before the anti-Flag blot.

These are yes or no findings as the source states them, for the method shown. Binding seen in cells or lysates may run through a third protein. Some results given as binding are weak or reduced against the parent protein; the word gives no strength. Where a sequence is shown, tags or fusion partners need not be part of it.

As for “Flag-tagged PD-L1 (PD-L1-Flag) (from UniProt Q9NZQ7-1 19-290)”, the binding result is reported as “binds” in assay [1] and “no binding” in assay [2]. Regarding “PD-L1-Flag C250/272A double mutant (from UniProt Q9NZQ7-1 19-290)”, the binding entry in assay [1] is on record as “binds”. Same read-out and setting: as for “PD-L1-Flag C250A mutant (from UniProt Q9NZQ7-1 19-290)”, the entry is “binds”; as for “PD-L1-Flag C272A mutant (from UniProt Q9NZQ7-1 19-290)”, “binds”.
